Results taken from doi:10.1101/2024.09.27.615420.
These are yes or no findings as the source states them, for the method shown. In cells and extracts the contact can be indirect. Some binding calls cover weakened binding; strength is not graded here. Tags and fused reporters may be left off the sequences shown.

By UniProt entry, the sequences of proteins in these tests, tags left out. Residues count along the entry.
UniProt Q63524, residues 21-201: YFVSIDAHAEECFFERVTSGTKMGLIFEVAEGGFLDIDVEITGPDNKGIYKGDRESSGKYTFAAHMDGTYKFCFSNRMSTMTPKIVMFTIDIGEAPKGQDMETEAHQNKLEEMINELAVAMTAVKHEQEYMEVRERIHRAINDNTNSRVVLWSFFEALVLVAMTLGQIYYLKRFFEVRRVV

T1: GFP-CD59 (C94S) (UniProt P13987)
T1 sequence (chain, GPI anchor (GPI-anchored protein)): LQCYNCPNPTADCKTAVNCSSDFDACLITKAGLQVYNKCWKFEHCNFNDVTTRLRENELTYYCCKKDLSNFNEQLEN

B1: TMED9 (protein, UniProt Q5I0E7 38-235)
chain: LYFHIGETEKKCFIEEIPDETMVIGNYRTQLYDKQREEYQPATPGLGMFVEVKDPEDKVILARQYGSEGRFTFTSHTPGEHQICLHSNSTKFSLFAGGMLRVHLDIQVGEHANDYAEIAAKDKLSELQLRVRQLVEQVEQIQKEQNYQRWREERFRQTSESTNQRVLWWSILQTLILVAIGVWQMRHLKSFFEAKKLV
B2: calnexin (protein, UniProt P35565 21-591)
chain: HDGHDDDMIDIEDDLDDVIEEVEDSKSKSDTSTPPSPKVTYKAPVPTGEVYFADSFDRGSLSGWILSKAKKDDTDDEIAKYDGKWEVDEMKETKLPGDKGLVLMSRAKHHAISAKLNKPFLFDTKPLIVQYEVNFQNGIECGGAYVKLLSKTSELNLDQFHDKTPYTIMFGPDKCGEDYKLHFIFRHKNPKTGVYEEKHAKRPDADLKTYFTDKKTHLYTLILNPDNSFEILVDQSVVNSGNLLNDMTPPVNPSREIEDPEDRKPEDWDERPKIADPDAVKPDDWDEDAPSKIPDEEATKPEGWLDDEPEYIPDPDAEKPEDWDEDMDGEWEAPQIANPKCESAPGCGVWQRPMIDNPNYKGKWKPPMIDNPNYQGIWKPRKIPNPDFFEDLEPFRMTPFSAIGLELWSMTSDIFFDNFIISGDRRVVDDWANDGWGLKKAADGAAEPGVVGQMLEAAEERPWLWVVYILTVALPVFLVILFCCSGKKQSNAMEYKKTDAPQPDVKDEEGKEEEKNKGDEEEEEEKLEEKQKSDAEEDGGTGSQDEEDSKPKAEEDEILNRSPRNRKPRRE
B3: TMP21 (protein, UniProt Q63584 32-219)
chain: ISFHLPVNSRKCLREEIHKDLLVTGAYEITDQSGGAGGLRTHLKITDSAGHILYAKEDATKGKFAFTTEDYDMFEVCFESKGTGRIPDQLVILDMKHGVEAKNYEEIAKVEKLKPLEVELRRLEDLSESIVNDFAYMKKREEEMRDTNESTNTRVLYFSIFSMFCLIGLATWQVFYLRRFFKAKKLIE

Target: T1, GFP-CD59 (C94S)
Experiment: co-IP

| Molecule | binding |
| --- | --- |
| TMED2 (from UniProt Q63524 21-201) | binds |
| B1 | binds |
| B2 | binds |
| B3 | binds |
